Measured values as given in patent publication US20250075147A1, “FRAGRANCE AND FLAVOR COMPOSITIONS COMPRISING NEW FLAVOR AND FRAGRANCE INGREDIENTS” (priority 2023, published 2025).
Structures can show the parent of a compound that is named as a salt.

How the values were obtained:
odor evaluation panel = assay: Odor evaluation panel rating of odorants by Rate-All-That-Apply (RATA) method with 55-word odor lexicon, plus intensity and pleasantness; design: species or system human; details: for Floral: mean panelist score for odor label floral (RATA); for Fruity: mean panelist score for odor label fruity (RATA); for Spicy: mean panelist score for odor label spicy (RATA); for Sweet: mean panelist score for odor label sweet (RATA); for Pleasantness: mean panelist score for odor pleasantness
[1] = Evaluation by trained and/or certified flavor or fragrance chemists or master perfumers; categorization by commercial prospect; details: for Rating: category of commercial prospect, (A) highest > (B) > (C) > (D) lowest, (E) requires further study

Structure (SMILES) | Floral (odor evaluation panel) | Fruity (odor evaluation panel) | Spicy (odor evaluation panel) | Sweet (odor evaluation panel) | Rating [1] | Pleasantness (odor evaluation panel) | Rating (category of commercial prospect) ([1]; evaluation by trained flavor or fragrance chemists or master perfumers)
CC(NC(=O)OC(C)(C)C)C(=O)O (racemic) [Compound 12, boc-DL-alanine] | 0.528 | 0.667 | 0.056 | 1.306 | (D) |  | 
CC(O)C1CC1 (stereo not shown) [Compound 6, 1-cyclopropylethanol] | 0.056 | 0.056 | 0 | 0.278 | (D) |  | 
Cc1ncsc1CCOC=O [Compound 7, 2-(4-methyl-1,3-thiazol-5-yl)ethyl formate] | 0 | 0 | 0.281 | 0.094 | (B) | 4.772 | 
Cc1ccc(C#N)c(C)c1 [Compound 14, 2,4-dimethylbenzonitrile] | 0.97 | 0.364 | 0.818 | 1.242 | (D) | 6.121 | 
O=C1CC2CCC1C2 (stereo not shown) [Compound 17, bicyclo[2.2.1]heptan-2-one] | 0 | 0 | 0.229 | 0.429 | (D) | 1.989 | 
C=C(C)C(=O)OCCC(C)OC(=O)C(=C)C (stereo not shown) [Compound 18, 3-(2-methylprop-2-enoyloxy)butyl 2-methylprop-2-enoate] | 0.083 | 0.25 | 0.167 | 0.111 | (A) |  | 
C1CCC2=NCCCN2CC1 [Compound 22, 2,3,4,6,7,8,9,10-octahydropyrimido[1,2-a]azepine] | 0.206 | 0 | 0.088 | 0 | (D) | 4.456 | 
CCCCN(C=O)CCCC [Compound 29, N,N-dibutyl formamide] | 0.469 | 0.75 | 0.031 | 1.375 | (D) | 5.947 | 
CCCCC(CC)CNCC(CC)CCCC (stereo not shown) [Compound 30, 2-ethyl-N-(2-ethylhexyl)hexan-1-amine] | 0.281 | 0 | 0 | 0.125 |  | 3.647 | 
COC(=O)c1ccc(OC)c(N)c1 [Compound 36, methyl 3-amino-4-methoxybenzoate] | 0.167 | 0 | 0.167 | 0.222 | (D) |  | 
CC(C)COC(=O)CC#N [Compound 38, 2-methylpropyl 2-cyanoacetate] | 0.5 | 0.722 | 0.028 | 0.944 | (D) |  | 
CCC1(O)C2CC3CC(C2)CC1C3 (stereo not shown) [Compound 41, 2-ethyladamantan-2-ol] | 0.032 | 0.032 | 0.065 | 0.452 | (A) | 5.516 | 
Cc1nc(N)sc1C [Compound 45, 4,5-dimethyl-1,3-thiazol-2-amine] | 0.031 | 0 | 0.156 | 1.031 | (B) | 5.316 | 
CCC#CCO [Compound 47, pent-2-yn-1-ol] | 0.156 | 0.219 | 0.344 | 0.312 | (B) | 4.519 | 
CCOC(=O)c1cnoc1C [Compound 50, ethyl 5-methyl-1,2-oxazole-4-carboxylate] | 0.485 | 1.394 | 0.121 | 1.909 | (A) | 6.527 | 
Cc1cc(C)c(C)c(C)c1C [Compound 61, 1,2,3,4,5-pentamethylbenzene] | 0.226 | 0.032 | 0.258 | 0.097 | (A) | 3.997 | 
CCOC(=O)C#CC(=O)OCC [Compound 63, diethyl but-2-ynedioate] | 0.281 | 0.594 | 0.469 | 0.75 | (B) | 3.903 | 
O=C1C2CC3CC1CC(O)(C3)C2 [Compound 64, 5-hydroxyadamantan-2-one] | 0 | 0.028 | 0.056 | 0 | (D) |  | 
C#CCOC1CCCCO1 (stereo not shown) [Compound 76, 2-prop-2-ynoxyoxane] | 0.156 | 0.75 | 0.375 | 0.844 | (C) | 4.531 | 
NC1CCCCCCC1 [Compound 79, cyclooctanamine] | 0 | 0.061 | 0.303 | 0.273 | (D) | 2.948 | 

Structure (SMILES) | Floral (odor evaluation panel) | Fruity (odor evaluation panel) | Spicy (odor evaluation panel) | Sweet (odor evaluation panel) | Rating [1] | Pleasantness (odor evaluation panel) | Rating (category of commercial prospect) ([1]; evaluation by trained flavor or fragrance chemists or master perfumers)
COc1c(C)cnc(CO)c1C [Compound 80, (4-methoxy-3,5-dimethylpyridin-2-yl)methanol] | 0 | 0 | 0.167 | 0.2 | (D) | 4.967 | 
O=C(CO)OCc1ccccc1 [Compound 82, benzyl 2-hydroxyacetate] | 0.194 | 0.667 | 0.056 | 0.667 | (C) |  | 
O=C(O)[C@@H]1CC=CCC1 [Compound 84, (1S)-cyclohex-3-ene-1-carboxylic acid] | 0.353 | 2.294 | 0.088 | 1.206 | (D) | 4.997 | 
CCc1ncc(C)[nH]1 [Compound 85, 2-ethyl-5-methyl-1H-imidazole] | 0 | 0 | 0.111 | 0.306 | (C) |  | 
Cc1ccccc1OC(C)C [Compound 87, 1-methyl-2-propan-2-yloxybenzene] | 0.444 | 0.056 | 0.139 | 0.278 | (D) |  | 
CC(C)(C)N=Cc1ccccc1 [Compound 89, N-tert-butyl-1-phenylmethanimine] | 0.121 | 0.758 | 0.515 | 1.424 | (D) | 4.527 | 
CCCCCCCCCC(=O)N(C)C [Compound 90, N,N-dimethyl decanamide] | 0.062 | 0.062 | 0.281 | 0.219 |  | 3.359 | 
CCC(=O)C(C)CN(C)C (stereo not shown) [Compound 92, 1-(dimethylamino)-2-methylpentan-3-one] | 0.125 | 0 | 0.25 | 0.312 | (D) | 3.972 | 
NCCCCCCCCCCCCN [Compound 96, dodecane-1,12-diamine] | 0.267 | 0 | 0 | 0.267 | (D) | 4.407 | 
C=CCOc1ccccc1C=O [Compound 98, 2-prop-2-enoxybenzaldehyde] | 0.094 | 0.125 | 0.5 | 0.594 | (C) | 3.897 | 
CCCC(CCC)(C(=O)OCC)C(=O)OCC [Compound 100, diethyl 2,2-dipropylpropanedioate] | 0.312 | 1.562 | 0 | 1.062 | (A) | 6.344 | 
CCCC#CCCO [Compound 101, hept-3-yn-1-ol] | 0 | 0.3 | 0.167 | 0.533 | (C) | 5.177 | 
c1cc(C2OCCO2)cs1 [Compound 102, 2-thiophen-3-yl-1,3-dioxolane] | 0.219 | 1.688 | 0.406 | 1.781 | (B) | 4.859 | 
C1CCC(NC2CCCCC2)CC1 [Compound 105, N-cyclohexyl cyclohexanamine] | 0.167 | 0 | 0.056 | 0.111 | (D) |  | 
c1ccc(C2CCCCC2)cc1 [Compound 109, cyclohexylbenzene] | 0.778 | 0.333 | 0.278 | 0.556 | (B) |  | 
C=CN1CCCCCC1=O [Compound 147, 1-ethenylazepan-2-one] | 0.303 | 0.667 | 0.152 | 1 |  | 5.712 | 
Cc1ccc(N)c(N)c1 [Compound 206, 4-methylbenzene-1,2-diamine] | 0.028 | 0.139 | 0.056 | 0.167 |  |  | 
CC/C(C)=N/O [Compound 518, (NE)-N-butan-2-ylidenehydroxylamine] | 0.394 | 0.061 | 0.242 | 0.636 |  | 5.176 | 
CSC(=N)N [Compound 730, methyl carbamimidothioate] |  |  |  |  |  |  | (D)
CCC(C)=NO [Compound 895, N-butan-2-ylidenehydroxylamine] | 0.3 | 0 | 0.267 | 0.9 |  | 4.627 | 
